Results: patent publication US10488418B2, “Fluorescence assay for intestinal permeability” (THE REGENTS OF THE UNIVERSITY OF CALIFORNIA, priority 2014, dated 2019)
Several values for one entry are separate records, joined by “and”; a condition that tells them apart may be missing. Equal values may be shown once.

Columns and labels:
[1] = Viologen based fluorescence assay for sugars in urine with 4,4′oBBV and HPTS; details: with 4,4′oBBV, analyte concentration in original human urine sample; for LLOD: signal 3 SD above mean noise; for LLOQ: signal 10 SD above mean noise
From the text: A Marquardt 4-parameter curve fit was used. […] The g in urine/g ingested×100 yielded % ingested. Lactulose measurements were confirmed by enzyme assay.
Statistics: The lower limit of detection (LLOD) was defined as the analyte concentration in the urine sample at which fluorescence intensity in the assay was 3 standard deviations above the mean baseline fluorescence. Similarly, the lower limit of quantification (LLOQ) was defined as 10 standard deviations above the mean baseline fluorescence. Coefficient of variation percent (CV %) was determined by averaging sets of samples each measured in 4 wells. Results are given as mean±SEM.

[2] = Viologen based fluorescence assay for sugars in urine with 4,4′oMBV and HPTS; details: with 4,4′oMBV, analyte concentration in original human urine sample

| SMILES | LLOD [1] | LLOQ [1] | LLOD ([2]; signal 3 SD above mean noise) | LLOQ ([2]; signal 10 SD above mean noise) |
| --- | --- | --- | --- | --- |
| OC[C@H]1O[C@@H](O[C@@H]2[C@@H](CO)OC(O)(CO)[C@H]2O)[C@H](O)[C@@H](O)[C@H]1O (mixture of isomers) [Lactulose, lactulose] | 90 µM | 364 µM | 108 µM | 704 µM |
| OC[C@@H](O)[C@@H](O)[C@H](O)[C@H](O)CO [Mannitol, mannitol] | 416 µM and 354 µM | 860 µM and 1250 µM | – | – |
